Patent US20130017978

Chains of the proteins cited; added tags and fusions are not shown. Lines headed by an entry give the natural chain unless they say otherwise; changes in a name come on top.
UniProt P07636: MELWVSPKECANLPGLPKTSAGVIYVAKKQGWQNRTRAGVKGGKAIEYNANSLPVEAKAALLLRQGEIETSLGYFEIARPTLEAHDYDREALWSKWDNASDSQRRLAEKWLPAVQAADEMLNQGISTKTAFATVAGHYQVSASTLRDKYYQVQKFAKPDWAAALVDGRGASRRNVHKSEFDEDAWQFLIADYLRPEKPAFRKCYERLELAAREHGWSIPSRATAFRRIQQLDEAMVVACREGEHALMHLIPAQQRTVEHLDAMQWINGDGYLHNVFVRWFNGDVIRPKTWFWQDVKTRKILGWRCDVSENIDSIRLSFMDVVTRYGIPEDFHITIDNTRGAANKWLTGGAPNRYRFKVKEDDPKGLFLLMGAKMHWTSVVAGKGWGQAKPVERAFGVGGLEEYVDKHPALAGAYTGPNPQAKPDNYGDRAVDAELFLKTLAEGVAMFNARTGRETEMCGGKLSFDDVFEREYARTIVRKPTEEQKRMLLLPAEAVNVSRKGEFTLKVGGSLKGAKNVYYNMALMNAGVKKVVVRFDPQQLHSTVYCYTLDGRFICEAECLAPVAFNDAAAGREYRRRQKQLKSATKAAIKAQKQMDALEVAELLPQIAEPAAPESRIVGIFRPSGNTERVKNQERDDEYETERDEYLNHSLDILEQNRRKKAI

Assays:
Test in all cases: enzyme reaction in vitro
MuA transposase = MuA transposase (UniProt P07636); conditions: purified recombinant protein, protein details: Thermo Fisher Scientific
[1] = system: SgeI methylation-dependent restriction endonuclease (printed Sgel); conditions: purified recombinant protein, protein details: Thermo Fisher Scientific, label: 5'-33P
RNase H = target: T1, RNase H (UniProt P0A7Y4); conditions: four ribonucleotides in each strand (rCrGrCrG in SEQ 10; rUrUrUrC region as printed GrUrUrUrCACG in SEQ 11); purified recombinant protein; protein details: Thermo Fisher Scientific; label: 5'-33P
T1 sequence (looked up, limits assumed): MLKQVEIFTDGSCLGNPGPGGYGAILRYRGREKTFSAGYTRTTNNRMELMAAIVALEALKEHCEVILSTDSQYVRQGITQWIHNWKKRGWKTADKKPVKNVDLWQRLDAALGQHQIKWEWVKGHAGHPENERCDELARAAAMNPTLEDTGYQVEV

[2] = target: T2, Uracil-DNA Glycosylase (UDG) (UniProt P12295); conditions: deoxyuracil at one position in each strand (U as printed); purified recombinant protein; protein details: Thermo Fisher Scientific; label: 5'-33P on SEQ 4 strand (Example 1)
T2 sequence (looked up, limits assumed): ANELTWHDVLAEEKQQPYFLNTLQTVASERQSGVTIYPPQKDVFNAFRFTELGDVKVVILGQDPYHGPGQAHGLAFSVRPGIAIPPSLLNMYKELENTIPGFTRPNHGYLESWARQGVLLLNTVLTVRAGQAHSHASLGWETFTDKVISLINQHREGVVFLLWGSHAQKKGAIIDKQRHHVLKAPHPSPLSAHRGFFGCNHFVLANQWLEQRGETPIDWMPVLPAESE

Sequence: GTTTTCGCATTTATCGTGAAACGCTTTCGCGTTTTTCGTGCGTCAGTTCA / TGCTGAACTGACGCACGAAAAACGCGAAAGCGTTTCACGATAAATGCGAAAAC [m5C Mu transposon 1 (Cut-key4 (SgeI-MU)/Non-cut-key4)]
- activity on this sequence (MuA transposase; 5mC at C15 of SEQ 6 (GTTTTCGCATTTATmCGTG), label: 5'-33P): active
- activity on this sequence ([1]; 5mC at C15 of SEQ 6 (GTTTTCGCATTTATmCGTG)): active

Sequence: GTTTTCGCATTTATCGTGAAACGCTTTCGCGTTTTTCGTGCGTCAGTTCA / TGCTGAACTGACGCACGAAAAACGCGAAAGCGTTTCACGATAAATGCGAAAAC [m5C Mu transposon 2 (Cut-key4/Non-cut-key4 (SgeI-MU))]
- activity on this sequence (MuA transposase; 5mC at C14 of SEQ 9 (TGCTGAACTGACGmCACG), label: 5'-33P): active
- activity on this sequence ([1]; 5mC at C14 of SEQ 9 (TGCTGAACTGACGmCACG)): active

Sequence: GTTTTCGCATTTATCGTGAAACGCTTTCGCGTTTTTCGTGCGTCAGTTCA / TGCTGAACTGACGCACGAAAAACGCGAAAGCGUUUCACGATAAATGCGAAAAC [RNA/DNA hybrid Mu transposon (CK_RNR/DNR-2 / NCK_RNR/DNR-2)]
- activity on this sequence (MuA transposase; four ribonucleotides in each strand (rCrGrCrG in SEQ 10; rUrUrUrC region as printed GrUrUrUrCACG in SEQ 11), label: 5'-33P): active
- activity on this sequence (RNase H): active

Sequence: GTTTTCGCATTTATCGTGAAACGCTTTCGCGUTTTTCGTGCGTCAGTTCA / TGCTGAACTGACGCACGAAAAACGCGAAAGCGTUTCACGATAAATGCGAAAAC [Uracil Mu transposon end (Ck4_UDG12ntMU/NCk4_UDG12ntMU)]
- activity on this sequence (MuA transposase; deoxyuracil at one position in each strand (U as printed), label: 5'-33P on SEQ 4 strand (Example 1)): active
- activity on this sequence [2]: active

For some assays here: Protein sequences can lack the tags named with them. For some assays here: Construct, isoform or probe ends are uncertain for at least one entry.
